Data as given in PubChem BioAssay AID652272 (Drosophila RNAi Screening Center, 2013).
In all, the deposit lists about 21,000 reagents; shown is an unselected part of those that have a named target and a result. Of all reagents, 503 (2.4%) are marked active. 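Raw plate light values, not normalised; calls rest on replicate z-scores that were not deposited; hits include reporter decreases as well as increases.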 The record does not give: the amount of reagent, the time to read-out.

- Screen: 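Finding fly genes that regulate Hedgehog signal transduction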 (primary screen)
- Cells: Drosophila clone 8 (Cl8) cells
- Knock-down reagent: long dsRNA against Drosophila genes
- Measured: 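Plate reader light from a firefly reporter under a ptc promoter fragment that responds to Hedgehog, with Renilla light as transfection reference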
- Scale: firefly Hh reporter signal: higher = more ptc reporter light; Renilla reference signal: higher = more Renilla control light
- Call rule: 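Called a hit if the two-replicate mean z-score lies below -2 or above +3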
- Calls: active = hit: reporter lowered or raised; inactive = not a hit

With knock-down of CG1265 [DRSC08288] the results were firefly Hh reporter signal, replicate 1 = 1.21e5; firefly Hh reporter signal, replicate 2 = 52384; Renilla reference signal, replicate 1 = 3334; Renilla reference signal, replicate 2 = 2188; inactive.
After knock-down of ND-49L [DRSC14437], the record shows firefly Hh reporter signal, replicate 1 = 3.67e5; firefly Hh reporter signal, replicate 2 = 64589; Renilla reference signal, replicate 1 = 21393; Renilla reference signal, replicate 2 = 1856; inactive.
With knock-down of corto [DRSC12040], the record shows firefly Hh reporter signal, replicate 1 = 2.23e5; Renilla reference signal, replicate 1 = 3477; inactive.
corto [DRSC12375] showed firefly Hh reporter signal, replicate 1 = 1.55e5; firefly Hh reporter signal, replicate 2 = 1.37e5; Renilla reference signal, replicate 1 = 3521; Renilla reference signal, replicate 2 = 2807; inactive.
After knock-down of Hrs [DRSC00549] the results were firefly Hh reporter signal, replicate 1 = 1.42e5; firefly Hh reporter signal, replicate 2 = 1.05e5; Renilla reference signal, replicate 1 = 5636; Renilla reference signal, replicate 2 = 3787; inactive.
Against CG9586 [DRSC03270], the values are firefly Hh reporter signal, replicate 1 = 1.42e5; firefly Hh reporter signal, replicate 2 = 63770; Renilla reference signal, replicate 1 = 3814; Renilla reference signal, replicate 2 = 6048; inactive.
CG42834 [DRSC13234] showed firefly Hh reporter signal, replicate 1 = 2554; firefly Hh reporter signal, replicate 2 = 1.96e5; Renilla reference signal, replicate 1 = 595; Renilla reference signal, replicate 2 = 4411; inactive.
For CG34310 [DRSC00943] the deposit lists firefly Hh reporter signal, replicate 1 = 6.22e5; firefly Hh reporter signal, replicate 2 = 2.17e5; Renilla reference signal, replicate 1 = 30219; Renilla reference signal, replicate 2 = 9094; inactive.
For Calx [DRSC13457], the entry reads firefly Hh reporter signal, replicate 1 = 65492; firefly Hh reporter signal, replicate 2 = 2.33e5; Renilla reference signal, replicate 1 = 13632; Renilla reference signal, replicate 2 = 5184; inactive.
Against Calx [DRSC13459], the values are firefly Hh reporter signal, replicate 1 = 54820; firefly Hh reporter signal, replicate 2 = 2.31e5; Renilla reference signal, replicate 1 = 11300; Renilla reference signal, replicate 2 = 5560; inactive.
Depletion of Calx [DRSC16599] resulted in: firefly Hh reporter signal, replicate 1 = 6.16e5; firefly Hh reporter signal, replicate 2 = 1.37e5; Renilla reference signal, replicate 1 = 33776; Renilla reference signal, replicate 2 = 3980; inactive.
For CG18538 [DRSC06765], the values are firefly Hh reporter signal, replicate 1 = 1.02e5; firefly Hh reporter signal, replicate 2 = 57895; Renilla reference signal, replicate 1 = 2722; Renilla reference signal, replicate 2 = 4517; inactive.

2 entries from above, set out differently.
{"gene": "corto", "DRSC id": "DRSC12040", "firefly Hh reporter signal, replicate 1": 2.23e5, "Renilla reference signal, replicate 1": 3477, "outcome": "inactive"}
{"gene": "corto", "DRSC id": "DRSC12375", "firefly Hh reporter signal, replicate 1": 1.55e5, "firefly Hh reporter signal, replicate 2": 1.37e5, "Renilla reference signal, replicate 1": 3521, "Renilla reference signal, replicate 2": 2807, "outcome": "inactive"}
